These are yes or no findings as the source states them, for the method shown. In cells and extracts the contact can be indirect. Some binding calls cover weakened binding; strength is not graded here.
Molecular target: TAP1 (subunit of the transporter associated with antigen processing) (human (endogenous in monocytes and monocyte-derived DCs)) (UniProt Q03518)
Assay: co-IP; anti-TAP1 mAb 148.3 cross-linked to sheep-anti-mouse IgG Dynabeads; solubilizates of monocytes, imDCs and mDCs in 1% digitonin, 150 mM NaCl, 50 mM HEPES pH 7.4, 8.6% glycerin; 3 h at 4 °C; washed with 0.1% digitonin; immunoblot; isotype antibody as control

Substance | binding
ERp57 (from UniProt P30101 25-505) | binds
calreticulin (from UniProt P27797 18-417) | binds

From PMC9365725
